In one series the test system is MOLM-13 (MLL-AF9) cells. Briefly: Cell proliferation inhibition, CellTiterGlo viability assay, 4 days (Example 102). Type of series: cell-based, human. As to conditions: 4 days treatment. The source says: (§1) The objective of the study was to evaluate the ability of compounds of the invention, inhibitors of Menin/MLL interaction to inhibit cell proliferation. The proliferation inhibitory effect was investigated in two human MLL-leukemia cells selected on the bases of MLL fusion protein and listed in Table 1. HL-60 cell line was used as negative control (Table 3).
(§2) ATP is present in all metabolically active cells and is considered as a marker for cell viability and proliferation. The metabolic cell activity was determined using the CellTiter-Glo kit from Promega, an ATP monitoring system based on the production of luminescence by the reaction of ATP with added UltraGlo® recombinant luciferase (Kawano et al., 2016), according to the supplier's experimental recommendations.
(§3) The described assay evaluates the ability of representative compounds of invention to inhibit the cell proliferation in the human MLL-leukemia cells plus a negative control cell line.
(§4) The assay provides potency values (IC50) for each test compound at a single time point Day 4 (T4).
(§5) Seven concentrations of the NCEs (2.00E-05-6.67E-06-2.22E-06-7.41E-07-2.47E-07-8.23E-08-2.74E-08M), were assessed in duplicate in an individual test occasion in all the cell lines. MI-503 (Borkin et al., 2015) was used as reference compound and was tested at the same concentrations as the NCEs. 100% of proliferation is represented by the untreated cells (0.2% DMSO). The cell growth was monitored up to 4 days in culture.
(§6) MV4-11, MOLM-13 and HL-60 cells (see Table 2) were maintained in RPMI-1640 medium (Invitrogen, Cat. n. 618700, Batch n. 1965930) supplemented with 10% of Heat Inactivated FBS (Invitrogen, Cat n. 10500, Batch n. 08Q8078K) and 1% Pen-Strep (Invitrogen, Cat. N. 15140, Batch n. 1910859) and cultured at 37° C. in a humidified incubator with 5% CO2. All the cell lines grow in suspension and the cell density was maintained in a range of 2×10^5-1×10^6 viable cells/ml. Cells were pelleted at 130 g×5 min and conditioned medium was used to dilute the cell suspension.
(§7) Cells were plated in 96-well flat bottom microtiter plates at cell density of 15,000 cells/ml for HL-60, 1000 cells/ml for MOLM-13 and 10,000 cell/ml for MV4-11. Cells were treated with 0.2% DMSO (Sigma, D8418, batch n. SHBH4245V) or serial dilutions of compounds ([…]) in DMSO (0.2% final concentration). Cells were incubated in a 5% CO2 incubator at 37° C. for 4 days. A CellTiterGlo viability assay (Promega) was employed. Luminescence was read by using VictorV (Perkin Elmer) multilabel plate reader using the standard protocol for luminescence in 96 well plate. The experiment was performed in duplicate. […]
(§8) CRCs were analysed by GraphPad and IC50 values were calculated by non-linear regression using 4 parameter-logistic equation. […]
(In ATP-based viability assays light output follows the ATP content of the culture.)

For a further series, the system named is MV4-11 (MLL-AF4) cells. Described as above. The format is cell-based, human. As to conditions: 4 days treatment.
Description: as §1, §2, §3, §4, §5, §6, §7, §8

The values below come from US12116371B2, “Substituted pyridines as irreversible inhibitors of menin-MLL interaction” (BIOMEA FUSION, INC., priority 2018, dated 2024).

Structures are written as SMILES.

Turning to `C=CC(=O)NC1CN(c2ccnc(NC(=O)Nc3ccc(-c4cc5c(N6CCOCC6)ncnc5[nH]4)cc3)c2)C1` [Compound 1], the slope in the series on MOLM-13 (MLL-AF9) cells was determined as 4.4; in the series with MV4-11 (MLL-AF4) cells it was 1.6.
As to `Cc1c(CN2CCC(Nc3ncnc4sc(CC(F)(F)F)cc34)CC2)ccc2c1cc(C#N)n2Cc1cn[nH]c1` [MI-503, reference compound], the slope in the series with MOLM-13 (MLL-AF9) cells is recorded as 1.0; in the series with MV4-11 (MLL-AF4) cells, 1.4.
